According to the supplement of paper PMC12764529:
± gives the half width of the 95% confidence interval. For many entries, trypsin and chymotrypsin gave values far apart.

Columns and labels:
[1] = folding stability dG unfold (combined trypsin and chymotrypsin); higher = more stable
Procedure, shortened: (§1)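 Digests were run with trypsin and chymotrypsin at 11 concentrations in threefold dilutions, plus a no-protease condition, on designed mini-proteins in a PA-tagged cDNA display construct. The mini-proteins were under 80 residues, had no cysteine, and were kept only when AlphaFold2 dimer inter-PAE was above 15. After sequencing, Bayesian fitting of the counts gave K50, from which unfolding free energy was derived against a sequence-predicted unfolded-state K50 and a shared folded-state K50, per protease or combined.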

[2] = folding stability dG unfold from chymotrypsin proteolysis; higher = more stable
Procedure, shortened: as §1

[3] = folding stability dG unfold from trypsin proteolysis; higher = more stable
Procedure, shortened: as §1

Row | Sequence | folding stability dG unfold [1] | folding stability dG unfold [2] | folding stability dG unfold [3]
1 | SAGGSAGGSAKYIKFYVPADKMTVEEFAEFIRDELGIPGENIKIDEVEPSPNGWYRVTIKIPSAGGSAGGSA [r18_118_TrROS] | 3.47 ± 0.07 kcal/mol | 3.886 ± 0.031 kcal/mol | 1.82 ± 0.036 kcal/mol
2 | SAGGIEDIANEFGIEDVEIEEINPEYNEVTVTFRFRGPNGNPFTWTYTIEVPPPPPPEPKMDPEDNNNSAGG [r13_608_TrROS] | 1.81 ± 0.32 kcal/mol | 2.44 ± 0.16 kcal/mol | 1.06 ± 0.12 kcal/mol
3 | SAGGSAGGSAGGSHHPPGSSITVTVTVETVSETTLTFPGGVPVTETTTTTTTVPVTIQTSAGGSAGGSAGGS [r4_418_JUSTAS] | 1.57 ± 0.12 kcal/mol | -0.658 ± 0.15 kcal/mol | 2.48 ± 0.16 kcal/mol
4 | SAGGSAGGSAGGKKIEIEIVVKNEDGTYTVVRAEVELDENGKLKITKVEVKTVTLEELKKSAGGSAGGSAGG [r7_521_TrROS_Hall] | 3.68 ± 0.077 kcal/mol | 4.1 ± 0.082 kcal/mol | 2.01 ± 0.12 kcal/mol
5 | SAGGSAGLRVRLADGSELSVSPIPDKLRVVVTLPNGARIPIDVEDGELVEIVRDPAVPADFYIEEISAGGSA [r15_709_JUSTAS] | 1.06 ± 0.1 kcal/mol | 1.25 ± 0.043 kcal/mol | 0.419 ± 0.14 kcal/mol
6 | SAGGSAETVTLTLVDEETGLVVKLTVTKNEDGSYTVTIEVYKNGKLVEKKTLTVKKEDMTLEELLSSAGGSA [r15_147_TrROS_Hall] | 4.73 ± 0.27 kcal/mol | 5.24 ± 0.29 kcal/mol | 2.89 ± 0.27 kcal/mol
7 | SAGGAPLPPSLRALAERLRAEGHEVTIVRHGDRYVLFVNGKTVETEEEVEKLKKVPGIKEIIVEPAPSAGGS [r16_275_JUSTAS] | 2.58 ± 0.17 kcal/mol | 3.17 ± 0.074 kcal/mol | 0.45 ± 0.18 kcal/mol
8 | SAGGSIELPLEEGSTAEVELELRVPFYRLDANGRPVAPEERTLRIRARFTRLPDGRVLVEVEVEVESAGGSA [r2_154_TrMRF] | 4.98 ± 0.13 kcal/mol | 5.24 ± 0.1 kcal/mol | 4.46 ± 0.17 kcal/mol
9 | SMKYELKVEVEVEVKPDPVSGKVTVEFKVKVELYAVDPDGNKTKLSESEATLTVEADLEEAVELAELILDSA [r9_642_TrMRF] | 4.84 ± 0.56 kcal/mol | 5.18 ± 0.52 kcal/mol | 1.97 ± 0.14 kcal/mol
10 | SAGGSAGGMIKITITVPPGVSPEFVREKIAPLGVEVLSVEPLPDGTHRVTIEIPPEITKNPELLSAGGSAGG [r6_470_JUSTAS] | 1.42 ± 0.044 kcal/mol | 1.18 ± 0.023 kcal/mol | 1.68 ± 0.051 kcal/mol
11 | SAGGKLPKLPPGQIEIMDFQIEPDPDGRYKMSFMITITAPDNGKKVVVMLEMWMPPDGEMKTGIGIMPSAGG [r13_263_TrROS] | 2.65 ± 0.34 kcal/mol | 2.85 ± 0.15 kcal/mol | 1.9 ± 0.14 kcal/mol
12 | SAGGSAGGPEVKILKVDPENNTITLALPVDNEILLLEIKIEPDPENPNSFKATIELKVFPYNEASAGGSAGG [r6_371_TrMRF] | 2.8 ± 0.26 kcal/mol | 3.21 ± 0.096 kcal/mol | 2.33 ± 0.28 kcal/mol
13 | SAGGSADKNKPKKKVEEKEFYVKIPFKSKEEALAYVEEIKKKFPGAKVEIVSLSPDGIAIIKITLKSAGGSA [r15_387_TrMRF] | 3.53 ± 0.19 kcal/mol | 3.82 ± 0.16 kcal/mol | 1.65 ± 0.058 kcal/mol
14 | SAGGSAGGSAGKKELTFKDKNGKTITVTLEDGEIKEIKIEKPPKPKVVKTEKKYVPKEELSAGGSAGGSAGG [r17_287_TrROS_Hall] | 0.135 ± 0.4 kcal/mol | 0.0761 ± 0.069 kcal/mol | 0.0355 ± 0.16 kcal/mol
15 | SAGGSAGGMIVEKSVTLLEGNLAVETTTTVDPNNPDKVETEPSVTEIPTPVKVEPEPPVWGEPSSAGGSAGG [r6_230_JUSTAS] | 0.606 ± 0.044 kcal/mol | 1.04 ± 0.047 kcal/mol | -1.26 ± 0.34 kcal/mol
16 | SMEITVYKLPDGTYIIKIYFPSDGKDITIPFSPEKDPEEVAKEVAEKLSKEKKDKPKSITIEDLPEPLPGSA [r9_1205_JUSTAS] | 3 ± 0.4 kcal/mol | 3.36 ± 0.052 kcal/mol | 1 ± 0.088 kcal/mol
17 | SAGGKVKVVEIRYFPGTNTVEILVEDPGPYLATIRIPAAPDAPIEIDEDANFRVPDAPVVLGEVRPPSAGGS [r16_515_TrMRF] | 1.09 ± 0.072 kcal/mol | 0.843 ± 0.12 kcal/mol | 1.19 ± 0.027 kcal/mol

Reprinted: entries 1–4
Row | Sequence | folding stability dG unfold [1] | folding stability dG unfold [2] | folding stability dG unfold [3]
1 | SAGGSAGGSAKYIKFYVPADKMTVEEFAEFIRDELGIPGENIKIDEVEPSPNGWYRVTIKIPSAGGSAGGSA [r18_118_TrROS] | 3.47 ± 0.07 kcal/mol | 3.886 ± 0.031 kcal/mol | 1.82 ± 0.036 kcal/mol
2 | SAGGIEDIANEFGIEDVEIEEINPEYNEVTVTFRFRGPNGNPFTWTYTIEVPPPPPPEPKMDPEDNNNSAGG [r13_608_TrROS] | 1.81 ± 0.32 kcal/mol | 2.44 ± 0.16 kcal/mol | 1.06 ± 0.12 kcal/mol
3 | SAGGSAGGSAGGSHHPPGSSITVTVTVETVSETTLTFPGGVPVTETTTTTTTVPVTIQTSAGGSAGGSAGGS [r4_418_JUSTAS] | 1.57 ± 0.12 kcal/mol | -0.658 ± 0.15 kcal/mol | 2.48 ± 0.16 kcal/mol
4 | SAGGSAGGSAGGKKIEIEIVVKNEDGTYTVVRAEVELDENGKLKITKVEVKTVTLEELKKSAGGSAGGSAGG [r7_521_TrROS_Hall] | 3.68 ± 0.077 kcal/mol | 4.1 ± 0.082 kcal/mol | 2.01 ± 0.12 kcal/mol
